Measured data: PubChem BioAssay AID1259254 (NCATS, 2017)

- Purpose: 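Genome-wide screen for genes that prevent DNA re-replication in cancer cells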 (primary screen)
- Cells: human HCT116 colorectal cancer cells
- Reagents: single siRNA against human genes
- Timing: 3 days
- Read-out: 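Nuclei stained with Hoechst and imaged; cell-cycle phase assigned by DNA content; G2 share scaled per plate, non-targeting siRNA 0%, GMNN siRNA 100%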
- Scale: G2 robust z-score: higher = more G2 cells, more excess DNA replication
- Call rule: 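An siRNA counts as active if its G2 robust z-score lies at least 5 MADs above the screen median; here such calls match roughly 38% of GMNN control or more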
This is an unselected part of about 59,000 reagents. Of all reagents, about 1,550 (2.6%) got an active call. 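G2 share is only a proxy for re-replication; each gene was hit by three separate siRNAs, and active genes were retested.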 Not all columns of the deposit are shown. Not given: the amount of reagent.

| target | PubChem SID | G2 robust z-score | Call |
| --- | --- | --- | --- |
| ASH1L | SID160744564 | 0.425 | inactive |
| ASH1L | SID160744565 | -0.444 | inactive |
| ASH1L | SID160744566 | 0.771 | inactive |
| LONRF2 | SID160760139 | 2.42 | inactive |
| LONRF2 | SID160760140 | 0.0128 | inactive |
| LONRF2 | SID160760142 | -0.656 | inactive |
| PRAMEF5 | SID160764679 | 0.471 | inactive |
| PRAMEF5 | SID160764680 | 1.77 | inactive |
| PRAMEF5 | SID160764681 | 0.32 | inactive |
| ZNF264 | SID160722174 | -0.101 | inactive |
| ZNF264 | SID160722175 | 0.98 | inactive |
| ZNF264 | SID160722177 | 1.84 | inactive |

3 of these entries in another layout.
target | PubChem SID | G2 robust z-score | Call
ASH1L | SID160744566 | 0.771 | inactive
LONRF2 | SID160760139 | 2.42 | inactive
LONRF2 | SID160760140 | 0.0128 | inactive

More results:
| target | PubChem SID | G2 robust z-score | Call |
| --- | --- | --- | --- |
| CDC40 | SID160740676 | 0.769 | inactive |
| CDC40 | SID160740677 | 1.6 | inactive |
| CDC40 | SID160740678 | 3.81 | inactive |
| WNT7A | SID160718842 | -0.522 | inactive |
| WNT7A | SID160718843 | -1.07 | inactive |
| WNT7A | SID160718844 | 0.0723 | inactive |
| LINC03034 | SID160763023 | -0.811 | inactive |
| LINC03034 | SID160763024 | 1.16 | inactive |
| LINC03034 | SID160763025 | -1.01 | inactive |
| HOXA5 | SID160731074 | -1.28 | inactive |
| HOXA5 | SID160775168 | -0.879 | inactive |
| HOXA5 | SID160775169 | -0.832 | inactive |
| BRDT | SID160728878 | -1.08 | inactive |
| BRDT | SID160728889 | -1.12 | inactive |
| BRDT | SID160728900 | -0.349 | inactive |
| UBXN10 | SID160756673 | -1.21 | inactive |
| UBXN10 | SID160756674 | 0.227 | inactive |
| UBXN10 | SID160756675 | -0.939 | inactive |
